Measurements reported in publication PMC4385868.
Results are given in words; binding and its absence hold for the method and conditions named. Binding seen in cells or lysates may run through a third protein. Binding can be weak; no strength is given.

Biological target: T1, endogenous Vav1 (human (endogenous in H358 and H441)) (UniProt P15498)
T1 sequence: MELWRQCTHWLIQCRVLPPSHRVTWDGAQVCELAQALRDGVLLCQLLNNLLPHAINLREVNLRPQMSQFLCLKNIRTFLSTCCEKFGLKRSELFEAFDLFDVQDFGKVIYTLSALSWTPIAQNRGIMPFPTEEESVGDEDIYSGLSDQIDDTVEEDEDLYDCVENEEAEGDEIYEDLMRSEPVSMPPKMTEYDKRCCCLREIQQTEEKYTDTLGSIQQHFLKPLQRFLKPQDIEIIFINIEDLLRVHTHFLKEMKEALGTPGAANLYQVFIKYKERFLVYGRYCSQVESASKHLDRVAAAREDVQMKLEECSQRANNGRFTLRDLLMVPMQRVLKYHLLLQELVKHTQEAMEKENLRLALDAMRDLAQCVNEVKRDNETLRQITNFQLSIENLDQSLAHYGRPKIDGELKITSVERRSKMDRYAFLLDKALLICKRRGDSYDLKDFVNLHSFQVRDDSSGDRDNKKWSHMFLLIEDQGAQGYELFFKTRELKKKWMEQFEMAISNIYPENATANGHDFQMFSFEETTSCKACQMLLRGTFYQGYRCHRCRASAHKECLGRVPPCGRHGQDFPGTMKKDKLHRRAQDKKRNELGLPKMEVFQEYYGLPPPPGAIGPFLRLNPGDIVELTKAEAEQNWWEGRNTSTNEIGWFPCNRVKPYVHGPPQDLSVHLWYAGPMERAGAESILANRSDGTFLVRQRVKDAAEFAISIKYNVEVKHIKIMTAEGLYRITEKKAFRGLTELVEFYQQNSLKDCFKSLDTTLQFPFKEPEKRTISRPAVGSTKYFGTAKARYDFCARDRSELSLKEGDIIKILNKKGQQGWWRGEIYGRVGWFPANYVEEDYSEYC
Experiment: co-IP; total cell extracts of H358 and H441 cells precipitated with anti-Vav1 Ab or control IgG (1% NP-40 lysis buffer); partners detected by sequential immunoblotting

binding | Substance
binds | E-cadherin (human (endogenous in H358 and H441))
binds | α-catenin (human (endogenous in H358 and H441))
